Values from PubChem BioAssay AID743121 (NCATS, 2013).
The whole screen tested about 26,000 reagents; below is a part drawn at random. 167 of them (0.63%) count as active. 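Calls are per gene from RSA p-values that are not deposited; an individual active-marked siRNA can sensitise only weakly.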 Reagents against one gene are numbered here. Not all columns of the deposit are shown. Reagent sequences are not shown.

- Assay: 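Partners whose loss is lethal together with topoisomerase I blockade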 (primary screen)
- Cell system: MDA-MB-231 cells, a human breast cancer line
- Reagents: single siRNA against human genes, 20 nM siRNA (0.8 pmol per well)
- Duration: 120 h (drug added 48 h after transfection, read 72 h later)
- Challenge: camptothecin 20 nM (about EC30) for 72 h; vehicle 0.1% DMSO in parallel plates
- Measured: 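CellTiter-Glo ATP signal, scaled to control siRNA as percent viability; sensitisation given as log2 of untreated divided by camptothecin-treated viability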
- Direction: log2 vehicle/camptothecin viability: higher = stronger sensitisation to camptothecin; viability with camptothecin: higher = more viable cells
- Call rule: 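Each gene scored by redundant siRNA activity (RSA) over its individual siRNA ratios; a gene is called active at p < 0.001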

no.	gene	reagent no.	log2 vehicle/camptothecin viability	viability with camptothecin (% of control)	Outcome
1	CD81	1	-0.449	40.6	inactive
2	CD81	2	-0.0604	114	inactive
3	CD81	3	-0.302	115	inactive
4	CD81	4	-0.37	80.9	inactive
5	RBAK	1	-0.276	103	inactive
6	RBAK	2	0.91	39.8	inactive
7	RBAK	3	0.577	47.7	inactive
8	RBAK	4	-0.0983	19.3	inactive
9	MAP3K6	1	-0.229	61.2	inactive
10	MAP3K6	2	-0.0533	74.4	inactive
11	MAP3K6	3	0.205	39.6	inactive
12	MAP3K6	4	-0.116	104	inactive
13	APOF	1	-0.165	45.1	inactive
14	APOF	2	-0.189	104	inactive
15	APOF	3	-0.388	77.2	inactive
16	APOF	4	-0.335	60.5	inactive
17	WAS	1	-0.0898	80.4	inactive
18	WAS	2	-0.0555	99.1	inactive
19	WAS	3	-0.607	28.2	inactive
20	FAM53B	1	0.124	57	inactive
21	FAM53B	2	-0.143	82.5	inactive
22	FAM53B	3	-0.0606	99.3	inactive
23	FAM53B	4	0.465	32.9	inactive
24	TNFRSF10D	1	-0.0212	78.5	inactive
25	TNFRSF10D	2	0.392	60.1	inactive
26	TNFRSF10D	3	-0.0418	92.9	inactive
27	TNFRSF10D	4	-0.109	114	inactive
28	KLK10	1	-0.299	78.7	inactive
29	KLK10	2	-0.102	36.7	inactive
30	KLK10	3	0.376	35	inactive
31	KLK10	4	0.161	29.6	inactive
32	NME1	1	0.0632	89.5	inactive
33	NME1	2	0.033	71.8	inactive
34	NME1	3	-0.346	112	inactive
35	NME1	4	-0.355	93.2	inactive
36	ADGRE5	1	0.614	37.5	inactive
37	ADGRE5	2	-0.691	57.4	inactive
38	ADGRE5	3	-0.209	45.7	inactive
39	ADGRE5	4	0.0289	84.1	inactive
40	RAB10	1	-0.018	76.3	inactive
41	RAB10	2	0.0459	79.6	inactive
42	RAB10	3	-0.406	51.8	inactive
43	RAB10	4	-0.131	110	inactive

Quoted from the listing, 7 entries:
no.	gene	reagent no.	log2 vehicle/camptothecin viability	viability with camptothecin (% of control)	Outcome
37	ADGRE5	2	-0.691	57.4	inactive
38	ADGRE5	3	-0.209	45.7	inactive
39	ADGRE5	4	0.0289	84.1	inactive
40	RAB10	1	-0.018	76.3	inactive
41	RAB10	2	0.0459	79.6	inactive
42	RAB10	3	-0.406	51.8	inactive
43	RAB10	4	-0.131	110	inactive

The list goes on:
no.	gene	reagent no.	log2 vehicle/camptothecin viability	viability with camptothecin (% of control)	Outcome
44	TRIM16L	1	-0.0529	77.8	inactive
45	TRIM16L	2	0.312	19.5	inactive
46	TRIM16L	3	0.0248	89.1	inactive
47	MRC1	1	-0.378	90	inactive
48	MRC1	2	-0.329	112	inactive
49	MRC1	3	-0.0199	108	inactive
50	AR	1	-0.109	68.6	inactive
51	AR	2	-0.0418	75.4	inactive
52	AR	3	-0.352	155	inactive
53	ADM	1	-0.699	109	inactive
54	ADM	2	-0.254	54.5	inactive
55	ADM	3	-0.219	30.4	inactive
56	ADM	4	0.253	29.1	inactive
57	CEP43	1	-0.126	92.6	inactive
58	CEP43	2	-0.323	91.9	inactive
59	CEP43	3	0.352	51.4	inactive
60	CEP43	4	0.255	64.8	inactive
61	XPO5	1	-0.292	90.4	inactive
62	XPO5	2	-0.0882	55.9	inactive
63	XPO5	3	-0.57	93.8	inactive
64	XPO5	4	0.204	73	inactive
65	HIPK3	1	-0.462	121	inactive
66	HIPK3	2	-0.284	86.6	inactive
67	HIPK3	3	-0.307	69.3	inactive
68	HIPK3	4	0.0204	68.7	inactive
